Data from patent US20180256495A1 (MEDRx Co., Ltd., priority 2008, published 2018).

Assay: Evaluation test of transdermal absorbability (skin penetrability) with a Franz diffusion cell
Type: in vitro ADME
Settings: free basic drug, liquid preparation 2 w/w %, rat skin, 32° C.

SMILES: COc1cc2c(cc1OC)C(=O)C(CC1CCN(Cc3ccccc3)CC1)C2 (stereo not shown) [donepezil]
- Penetrated Amount (amount of skin-penetrated drug during 3 hours): 25 μg/cm^2
